Assay [1] has as its target T1, Recombinant human ROR1-Fc chimera (human, UniProt Q01973 30-406).
T1 construct: receptor tyrosine kinase-like orphan receptor 1 (ROR1), human; recombinant ROR1-Fc chimera, R&D Systems Cat. No. 9490-RO; also called receptor tyrosine kinase-like orphan receptor 1; recombinant ROR1; source: bought: R&D Systems (Cat. No. 9490-RO)
Description: condition: only with CS-A (premixed at a 1:7 molar ratio); SPR; Biacore X100; ROR1-Fc immobilised on a CM5 chip; protein analyte premixed or pre-treated with CS-A (DKK1:CS-A 1:7 molar ratio); both purified. On the technique in general: SPR reads the build-up and loss of mass on a sensor chip optically.

Protein sequences, listed by entry. Tags and fused reporters are not part of them. Lines headed by an entry give the natural chain unless they say otherwise; changes in a name come on top. Residues count along the entry.
UniProt Q01973, residues 30-406: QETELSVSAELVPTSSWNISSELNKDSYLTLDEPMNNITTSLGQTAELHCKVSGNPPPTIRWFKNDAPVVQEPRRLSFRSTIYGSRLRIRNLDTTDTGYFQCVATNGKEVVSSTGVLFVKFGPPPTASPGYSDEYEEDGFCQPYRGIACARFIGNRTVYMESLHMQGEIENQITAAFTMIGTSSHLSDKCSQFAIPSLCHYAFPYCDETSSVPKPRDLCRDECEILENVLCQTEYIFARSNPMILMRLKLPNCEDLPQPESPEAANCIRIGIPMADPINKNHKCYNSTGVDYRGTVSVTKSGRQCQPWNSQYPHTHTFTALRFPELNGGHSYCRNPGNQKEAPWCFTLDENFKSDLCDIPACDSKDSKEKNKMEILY

Assay [2] deals with T1, Recombinant human ROR1-Fc chimera. Nature of the assay: SPR; Biacore X100; ROR1-Fc amine-coupled on a CM5 chip (~3,200 RU); protein analyte alone (no CS), 30 μl/min, 120 s, dissociation 130 s, 25°C; 50 mM Tris-HCl pH 7.5; both purified.

These are yes or no findings as the source states them, for the method shown. Some results given as binding are weak or reduced against the parent protein; the word gives no strength.

Results on one molecule are retold here after publication PMC9194504, “Chondroitin Sulfates Control Invasiveness of the Basal-Like Breast Cancer Cell Line MDA-MB-231 Through ROR1” (Frontiers in Oncology, 2022).

B1: recombinant human DKK1 (ligand, UniProt O94907 32-266, looked up)
chain: TLNSVLNSNAIKNLPPPLGGAAGHPGSAVSAAPGILYPGGNKYQTIDNYQPYPCAEDEECGTDEYCASPTRGGDAGVQICLACRKRRKRCMRHAMCCPGNYCKNGICVSSDQNHFRGEIEETITESFGNDHSTLDGYSRRTTLSSKMYHTKGQEGSVCLRSSDCASGLCCARHFWSKICKPVLKEGQVCTKHRRKGSHGLEIFQRCYCGEGLSCRIQKDHHQASNSSRLHTCQRH
notes: Dickkopf-1 (DKK1), human, recombinant, R&D Systems Cat. No. 5439-DK/CF; also called Dickkopf-1; source: bought: R&D Systems (Cat. No. 5439-DK/CF)
Take B1: the binding result is “no binding” in assay [1] and “binds weakly” in assay [2].
